From the supplement of paper PMC12067093, “Discovery and optimisation of a covalent ligand for TRIM25 and its application to targeted protein ubiquitination” (Chemical Science, 2025)
The list shows a part of the results.

The chains behind the UniProt entries cited, without tags or fusion partners. Where a name states a change or a piece, a line headed by the entry shows the natural chain unless it says otherwise.
UniProt Q8NDA8: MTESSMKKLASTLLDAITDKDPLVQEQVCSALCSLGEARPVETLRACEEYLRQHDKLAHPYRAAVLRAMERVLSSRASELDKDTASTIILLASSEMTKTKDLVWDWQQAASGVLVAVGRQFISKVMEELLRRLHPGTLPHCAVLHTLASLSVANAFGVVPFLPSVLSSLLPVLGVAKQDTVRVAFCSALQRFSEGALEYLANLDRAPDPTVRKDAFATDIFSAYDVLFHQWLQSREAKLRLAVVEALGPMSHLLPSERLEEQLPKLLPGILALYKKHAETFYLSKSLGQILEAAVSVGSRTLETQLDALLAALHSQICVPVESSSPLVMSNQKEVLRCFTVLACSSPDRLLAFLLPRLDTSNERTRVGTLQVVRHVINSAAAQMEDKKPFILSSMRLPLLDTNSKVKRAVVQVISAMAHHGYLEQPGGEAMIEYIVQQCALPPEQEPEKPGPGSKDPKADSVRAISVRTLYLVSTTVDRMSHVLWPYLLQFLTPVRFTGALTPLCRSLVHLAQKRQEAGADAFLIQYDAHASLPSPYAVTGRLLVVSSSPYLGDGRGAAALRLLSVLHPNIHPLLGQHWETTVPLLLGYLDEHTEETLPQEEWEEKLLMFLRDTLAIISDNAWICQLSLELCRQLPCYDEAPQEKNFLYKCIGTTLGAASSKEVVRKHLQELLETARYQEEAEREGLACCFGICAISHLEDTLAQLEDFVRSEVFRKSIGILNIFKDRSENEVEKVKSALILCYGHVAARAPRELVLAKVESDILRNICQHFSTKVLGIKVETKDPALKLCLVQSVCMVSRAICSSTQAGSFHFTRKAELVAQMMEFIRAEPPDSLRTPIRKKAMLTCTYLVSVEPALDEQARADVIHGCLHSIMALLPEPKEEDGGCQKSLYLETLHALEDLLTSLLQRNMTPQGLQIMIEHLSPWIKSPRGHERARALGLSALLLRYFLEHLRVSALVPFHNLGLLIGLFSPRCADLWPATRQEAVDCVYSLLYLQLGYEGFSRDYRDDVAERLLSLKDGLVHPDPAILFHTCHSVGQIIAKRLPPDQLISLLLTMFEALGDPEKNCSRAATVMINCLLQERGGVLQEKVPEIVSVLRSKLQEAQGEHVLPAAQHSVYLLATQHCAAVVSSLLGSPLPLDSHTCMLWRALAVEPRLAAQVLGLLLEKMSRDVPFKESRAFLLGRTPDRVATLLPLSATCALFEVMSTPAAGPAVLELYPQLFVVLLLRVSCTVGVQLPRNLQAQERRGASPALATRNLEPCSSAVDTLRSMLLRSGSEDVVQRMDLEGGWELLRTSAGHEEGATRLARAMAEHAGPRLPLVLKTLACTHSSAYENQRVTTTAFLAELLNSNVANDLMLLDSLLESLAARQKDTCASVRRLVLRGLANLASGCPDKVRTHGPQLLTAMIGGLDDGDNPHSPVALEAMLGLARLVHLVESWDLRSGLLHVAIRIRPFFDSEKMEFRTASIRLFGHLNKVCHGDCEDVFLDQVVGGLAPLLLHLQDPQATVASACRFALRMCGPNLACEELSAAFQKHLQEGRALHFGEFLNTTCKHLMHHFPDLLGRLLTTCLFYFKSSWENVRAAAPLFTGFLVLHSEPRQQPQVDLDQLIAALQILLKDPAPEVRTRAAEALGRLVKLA
UniProt Q14168: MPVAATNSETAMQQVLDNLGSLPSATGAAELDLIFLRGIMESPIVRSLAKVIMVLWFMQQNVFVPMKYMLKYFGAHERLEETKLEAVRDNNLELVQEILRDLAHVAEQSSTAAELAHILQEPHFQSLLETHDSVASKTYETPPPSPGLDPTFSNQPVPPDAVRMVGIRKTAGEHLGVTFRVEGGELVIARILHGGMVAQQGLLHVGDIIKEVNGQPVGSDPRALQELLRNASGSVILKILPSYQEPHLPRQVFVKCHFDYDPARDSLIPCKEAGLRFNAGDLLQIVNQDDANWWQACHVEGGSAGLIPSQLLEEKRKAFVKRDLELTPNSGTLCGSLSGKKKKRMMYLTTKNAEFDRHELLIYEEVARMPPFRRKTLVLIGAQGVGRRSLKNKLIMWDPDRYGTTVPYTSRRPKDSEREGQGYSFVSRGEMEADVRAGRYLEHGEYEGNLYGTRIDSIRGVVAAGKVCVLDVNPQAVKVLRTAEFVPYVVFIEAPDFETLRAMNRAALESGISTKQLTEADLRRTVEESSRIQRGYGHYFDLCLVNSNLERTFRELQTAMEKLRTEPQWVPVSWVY
UniProt Q9H000: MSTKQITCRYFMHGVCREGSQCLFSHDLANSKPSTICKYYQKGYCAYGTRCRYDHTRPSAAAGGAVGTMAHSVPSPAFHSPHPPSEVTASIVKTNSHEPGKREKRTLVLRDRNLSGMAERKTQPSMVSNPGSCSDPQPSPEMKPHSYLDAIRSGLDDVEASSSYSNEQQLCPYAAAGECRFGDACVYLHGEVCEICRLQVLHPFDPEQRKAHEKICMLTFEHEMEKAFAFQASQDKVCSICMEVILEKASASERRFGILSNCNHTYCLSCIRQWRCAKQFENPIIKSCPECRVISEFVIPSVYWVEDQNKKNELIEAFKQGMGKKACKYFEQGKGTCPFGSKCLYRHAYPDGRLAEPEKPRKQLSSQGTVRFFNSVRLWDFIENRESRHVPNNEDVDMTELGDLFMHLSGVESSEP
UniProt Q14149: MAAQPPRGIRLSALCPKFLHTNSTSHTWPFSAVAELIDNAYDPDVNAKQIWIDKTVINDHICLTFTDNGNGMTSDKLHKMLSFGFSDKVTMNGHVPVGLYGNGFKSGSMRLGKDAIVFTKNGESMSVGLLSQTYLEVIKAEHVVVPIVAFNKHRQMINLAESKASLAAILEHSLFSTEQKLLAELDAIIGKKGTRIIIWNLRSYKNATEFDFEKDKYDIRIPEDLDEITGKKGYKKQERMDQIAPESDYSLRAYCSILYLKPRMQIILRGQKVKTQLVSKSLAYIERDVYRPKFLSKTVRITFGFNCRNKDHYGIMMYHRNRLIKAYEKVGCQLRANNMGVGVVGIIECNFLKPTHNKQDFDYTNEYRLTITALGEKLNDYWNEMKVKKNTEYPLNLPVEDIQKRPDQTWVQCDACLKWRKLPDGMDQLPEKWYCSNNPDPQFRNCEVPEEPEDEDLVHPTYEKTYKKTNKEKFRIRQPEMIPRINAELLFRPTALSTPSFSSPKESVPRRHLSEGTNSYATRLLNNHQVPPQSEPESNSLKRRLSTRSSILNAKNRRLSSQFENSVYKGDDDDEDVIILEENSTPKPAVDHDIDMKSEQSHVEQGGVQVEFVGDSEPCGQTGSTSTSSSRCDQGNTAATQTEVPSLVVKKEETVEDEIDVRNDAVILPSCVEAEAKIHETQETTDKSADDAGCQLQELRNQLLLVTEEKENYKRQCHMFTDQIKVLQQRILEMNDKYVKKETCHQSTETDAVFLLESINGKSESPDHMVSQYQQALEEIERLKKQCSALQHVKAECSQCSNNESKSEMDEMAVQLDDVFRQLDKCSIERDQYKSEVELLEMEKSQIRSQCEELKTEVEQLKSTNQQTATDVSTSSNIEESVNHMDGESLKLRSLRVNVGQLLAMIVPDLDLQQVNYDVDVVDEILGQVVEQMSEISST
UniProt Q9UL63, whole entry, looked up: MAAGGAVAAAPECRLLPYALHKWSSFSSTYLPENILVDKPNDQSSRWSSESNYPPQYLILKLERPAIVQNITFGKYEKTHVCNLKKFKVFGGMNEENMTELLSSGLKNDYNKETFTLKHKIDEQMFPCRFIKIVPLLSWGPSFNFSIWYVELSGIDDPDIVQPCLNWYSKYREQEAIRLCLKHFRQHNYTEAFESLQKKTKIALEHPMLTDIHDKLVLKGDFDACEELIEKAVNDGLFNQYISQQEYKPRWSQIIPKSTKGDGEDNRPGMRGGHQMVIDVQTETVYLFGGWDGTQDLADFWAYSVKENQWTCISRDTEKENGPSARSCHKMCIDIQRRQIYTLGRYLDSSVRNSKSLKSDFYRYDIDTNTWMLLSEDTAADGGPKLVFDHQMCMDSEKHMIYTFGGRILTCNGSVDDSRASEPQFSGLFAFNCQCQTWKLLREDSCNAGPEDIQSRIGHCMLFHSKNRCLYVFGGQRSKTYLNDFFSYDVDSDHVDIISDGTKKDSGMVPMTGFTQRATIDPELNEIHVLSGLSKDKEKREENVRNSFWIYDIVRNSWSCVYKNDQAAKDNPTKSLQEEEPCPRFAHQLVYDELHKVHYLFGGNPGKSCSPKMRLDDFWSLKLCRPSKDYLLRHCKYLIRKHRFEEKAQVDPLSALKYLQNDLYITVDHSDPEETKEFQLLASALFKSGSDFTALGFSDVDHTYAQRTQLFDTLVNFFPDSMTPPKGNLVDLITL
UniProt P49959: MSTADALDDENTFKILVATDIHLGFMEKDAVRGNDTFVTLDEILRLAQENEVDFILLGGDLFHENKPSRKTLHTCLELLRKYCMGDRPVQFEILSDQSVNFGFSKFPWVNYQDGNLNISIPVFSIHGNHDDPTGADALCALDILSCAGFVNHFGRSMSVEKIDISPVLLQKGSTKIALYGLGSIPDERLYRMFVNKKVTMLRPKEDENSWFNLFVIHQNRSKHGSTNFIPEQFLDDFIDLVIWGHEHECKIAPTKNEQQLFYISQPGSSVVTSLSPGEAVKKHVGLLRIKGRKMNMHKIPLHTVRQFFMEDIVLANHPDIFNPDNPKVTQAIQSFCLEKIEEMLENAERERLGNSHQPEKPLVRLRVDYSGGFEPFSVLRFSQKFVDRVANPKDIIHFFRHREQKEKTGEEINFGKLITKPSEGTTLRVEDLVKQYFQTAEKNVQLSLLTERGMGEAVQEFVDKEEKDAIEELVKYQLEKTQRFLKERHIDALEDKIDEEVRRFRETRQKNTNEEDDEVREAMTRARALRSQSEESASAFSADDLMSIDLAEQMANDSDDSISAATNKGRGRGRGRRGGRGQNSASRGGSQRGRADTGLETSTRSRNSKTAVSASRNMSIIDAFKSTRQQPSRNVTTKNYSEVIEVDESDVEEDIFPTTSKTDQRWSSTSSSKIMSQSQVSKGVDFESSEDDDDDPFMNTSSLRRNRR
UniProt Q8N4C8: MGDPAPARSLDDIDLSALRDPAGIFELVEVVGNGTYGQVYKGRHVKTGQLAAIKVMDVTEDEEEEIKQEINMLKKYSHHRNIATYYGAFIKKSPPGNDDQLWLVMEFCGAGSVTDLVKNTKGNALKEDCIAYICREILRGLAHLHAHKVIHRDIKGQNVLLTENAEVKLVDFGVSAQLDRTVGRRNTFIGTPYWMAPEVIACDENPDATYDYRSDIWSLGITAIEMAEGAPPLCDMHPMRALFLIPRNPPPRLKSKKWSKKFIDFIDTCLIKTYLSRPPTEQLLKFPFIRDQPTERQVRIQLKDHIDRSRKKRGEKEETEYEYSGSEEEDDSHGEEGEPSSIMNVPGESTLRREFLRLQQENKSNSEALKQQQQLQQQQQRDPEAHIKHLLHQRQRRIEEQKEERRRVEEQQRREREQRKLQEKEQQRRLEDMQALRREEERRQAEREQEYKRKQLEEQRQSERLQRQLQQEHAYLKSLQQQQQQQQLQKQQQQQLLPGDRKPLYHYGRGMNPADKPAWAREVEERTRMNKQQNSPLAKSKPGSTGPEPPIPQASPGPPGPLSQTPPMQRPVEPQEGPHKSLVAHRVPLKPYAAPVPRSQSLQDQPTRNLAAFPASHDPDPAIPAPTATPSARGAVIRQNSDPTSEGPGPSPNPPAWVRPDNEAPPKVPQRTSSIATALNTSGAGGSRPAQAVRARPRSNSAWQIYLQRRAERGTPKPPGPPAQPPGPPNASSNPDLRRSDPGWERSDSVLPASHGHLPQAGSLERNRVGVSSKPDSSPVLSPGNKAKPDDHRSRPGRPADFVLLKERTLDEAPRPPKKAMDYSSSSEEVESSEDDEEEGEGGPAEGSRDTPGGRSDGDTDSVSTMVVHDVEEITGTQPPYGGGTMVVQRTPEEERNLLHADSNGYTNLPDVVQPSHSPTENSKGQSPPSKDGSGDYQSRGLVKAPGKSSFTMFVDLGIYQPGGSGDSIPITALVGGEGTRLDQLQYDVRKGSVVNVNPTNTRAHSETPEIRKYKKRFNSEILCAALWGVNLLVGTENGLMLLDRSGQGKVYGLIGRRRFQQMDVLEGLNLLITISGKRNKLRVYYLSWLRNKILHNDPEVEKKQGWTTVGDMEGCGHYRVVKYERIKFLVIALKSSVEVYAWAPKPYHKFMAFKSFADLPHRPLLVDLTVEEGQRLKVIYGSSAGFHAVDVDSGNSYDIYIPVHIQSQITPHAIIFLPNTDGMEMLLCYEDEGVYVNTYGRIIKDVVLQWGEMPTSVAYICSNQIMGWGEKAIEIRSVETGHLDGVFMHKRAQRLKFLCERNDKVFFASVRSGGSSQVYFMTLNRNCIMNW

Compound: CC1Cc2ccccc2N1C(=O)C1CCCN(C1)C(=O)CCl (mixture of isomers) [TRIM25 ligand 11 (diastereomer mixture)]
Assay: probe-labelled cysteine peptide fold change vs DMSO (competition) (log2 fold change); higher = less target engagement (more negative = stronger competition)
Settings: THP-1, incubation time: 4 h
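Also: competitive chemoproteomic profiling in live THP-1 cells with an iodoacetamide desthiobiotin (IA-DTB) probe, comparing probe-labelled peptide intensities in compound-treated cells against DMSO-treated controls.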

Row | Target | probe-labelled cysteine peptide fold change (10 µM) | probe-labelled cysteine peptide fold change (50 µM)
1 | MRPL37_Q9BZE1_203_RICVQNSTFSATWNR (UniProt Q9BZE1) | 0.0617 | -0.119
2 | MROH1_Q8NDA8_888_ADVIHGCLHSIMALLPEPKEEDGGCQK (UniProt Q8NDA8) | -0.104 | -0.0768
3 | MPP2_Q14168_543_GYGHYFDLCLVNSNLER (UniProt Q14168) | 0.0309 | 0.0351
4 | MKRN2_Q9H000_216_ICMLTFEHEMEK (UniProt Q9H000) | 0.0247 | 0.0549
5 | MIB1_Q86YT6_103_CAECTNYDLCTVCYHGDK (UniProt Q86YT6) | 0.0792 | -0.0222
6 | MORC3_Q14149_694_SADDAGCQLQELR (UniProt Q14149) | -0.102 | -0.326
7 | MIOS_Q9NXC5_621_VAFACK (UniProt Q9NXC5) | -0.0547 | 0.0123
8 | MMS19_Q96T76_977_IAALQCMHALTR (UniProt Q96T76) | 0.108 | 0.243
9 | MKLN1_Q9UL63_460_IGHCMLFHSK (UniProt Q9UL63) | -0.0053 | -0.00994
10 | MRM3_Q9HC36_235_SAAGAGCSK (UniProt Q9HC36) | -0.0242 | -0.0628
11 | MRPL28_Q13084_154_EDLCSK (UniProt Q13084) | 0.0603 | 0.116
12 | MRPL24_Q96A35_190_TYVPCLK (UniProt Q96A35) | -0.0871 | 0.0185
13 | MICAL2_O94851_552_SGLALCAIIHR (UniProt O94851) | -0.285 | -0.0658
14 | MRE11_P49959_336_VTQAIQSFCLEK (UniProt P49959) | 0.123 | 0.268
15 | MINK1_Q8N4C8_269_FIDFIDTCLIK (UniProt Q8N4C8) | 0.068 | 0.162
